The source of these data is publication PMC12670160, “A drug-repurposing screen of FDA- and EMA-approved drugs identifies two NF-κB inhibitors active against eumycetoma” (Journal of Antimicrobial Chemotherapy, 2025).

Structures can show the parent of a compound that is named as a salt. In all, about 5,300 compounds went through this assay and about 130 (2.5%) showed an effect of 50% or more. This is one part of the list.

This test concerns M. mycetomatis strain mm55. As to conditions: primary screen, metabolic activity vs growth control; 96 h, 2 µM; inhibitor.
`C=CCc1ccc(O)c(-c2ccc(O)c(CC=C)c2)c1` [ONC0004944, honokiol]: the “% viability” value is listed as 100.4%.

As for `COc1cc([C@@H]2c3cc4c(cc3[C@H](O)[C@H]3COC(=O)[C@H]23)OCO4)cc(OC)c1OC` [ONC0005295, podofilox], the “% viability” value turned out to be 58.67%.

Take `COc1cc2c(cc1OC)-c1cc3ccc(OC)c(OC)c3c[n+]1CC2` [ONC0004992, palmatine chloride]: the “% viability” value came to 94.43%.

In the case of `COC(=O)[C@H]1[C@H]2C[C@@H]3c4[nH]c5cc(OC)ccc5c4CCN3C[C@H]2C[C@@H](OC(=O)c2cc(OC)c(OC)c(OC)c2)[C@@H]1OC` [ONC0003379, reserpine], the “% viability” value was determined as 59.45%.

As for `Cc1cc(-c2nc(-c3ccc(OC(F)(F)F)cc3)no2)nn1Cc1ccnc(N2CCN(C3CC3)CC2)c1` [ONC0000748, bay 872243], the “% viability” value stood at 74%.

For `CN(C)CCCSc1ccccc1NC(=O)/C=C/c1ccccc1` [ONC0001570, cinanserin], the “% viability” value came to 74.68%.

Regarding `Cc1nc2cnc3ccc(C#Cc4cccnc4)cc3c2n1-c1ccc(C(C)(C)C#N)cc1` [ONC0000261, bag956], the “% viability” value was 56.93%.

In the case of `CN1C(=O)N(c2cc(Cl)cc(Cl)c2)C(=O)[C@]12CN(c1ccc(C(=O)O)cn1)C[C@H]2c1ccc(C#N)cc1` [ONC0001955, bms688521], the “% viability” value came to 85.35%.

Consider `O=C(NOCCO)c1cc(CN2OCCCC2=O)c(F)c(F)c1Nc1ccc(I)cc1F` [ONC0000778, ro4987655], for which the “% viability” value is reported as 63.33%.

As to `Nc1c2c(nc3c1CCC3)CCCC2` [ONC0002870, ipidacrine], the “% viability” value is 76.26%.

With `O=C(O)c1ccc(Nc2ncc3c(n2)-c2ccc(Cl)cc2C(c2c(F)cccc2F)=NC3)cc1` [ONC0004728, mln8054], the “% viability” value was determined as 102.9%.

For the compound `C[C@H](NC(=O)Cc1cc(F)cc(F)c1)C(=O)N[C@@H]1C(=O)N(C)c2ccccc2-c2ccccc21` [ONC0005046, yo01027 dibenzazepine], the “% viability” value amounted to 68.73%.

As for `O=c1c(-c2ccc(O)cc2)coc2cc(O)cc(O)c12` [ONC0003259, genistein], the “% viability” value was 82.01%.

For the compound `CCOC(=O)Nc1ccc2c(c1)N(C(=O)CCN1CCOCC1)c1ccccc1S2` [ONC0002922, moracizine], the “% viability” value is recorded as 68.55%.

`N[C@H](Cc1ccccc1)C(=O)O` [ONC0002457, dphenylalanine]: the “% viability” value worked out at 101.3%.

On to `Cc1cn(C2CC(N=[N+]=[N-])C(CO)O2)c(=O)[nH]c1=O` (stereo not drawn) [ONC0004065, zidovudine azt], for which the “% viability” value is given as 88.54%.

As to `OCc1ccc(-c2ccc(-c3ccc(CO)s3)o2)s1` [ONC0005235, rita nsc 652287], the “% viability” value amounted to 156.1%.

Take `N=C(N)SCCc1cnc[nH]1` [ONC0004439, imetit]: the “% viability” value is listed as 120.7%.

Consider `CNC[C@H](O)c1cccc(O)c1` [ONC0000459, lphenylephrine hydrochloride], for which the “% viability” value is listed as 72.58%.

Consider `O=C1Nc2cc(Cl)c(Cl)cc2N2CCNCC12` (stereo not drawn) [ONC0001784, way161503], for which the “% viability” value amounted to 127.3%.

Turning to `CC(=O)NNC(=O)N1Cc2ccccc2Oc2ccc(Cl)cc21` [ONC0000146, sc19220], the “% viability” value was found to be 93.82%.

Turning to `N[C@@H]1CN(c2c(F)cc3c(=O)c(C(=O)O)cn([C@@H]4C[C@@H]4F)c3c2Cl)CC12CC2` [ONC0004951, sitafloxacin hydrate], the “% viability” value was 68.99%.

For the compound `CCCCCCN(CCCCCC)C(=O)Cc1c(-c2ccc(F)cc2)[nH]c2ccccc12` [ONC0003019, fgin127], the “% viability” value was 82%.

For `CCN(CC)CCNC(=O)c1ccc(NC(C)=O)cc1` [ONC0005520, acecainide hydrochloride], the “% viability” value is reported as 103.1%.

As for `CN1C(=O)CC(C)(c2ccccc2)C1=O` (stereo not drawn) [ONC0003975, methsuximide], the “% viability” value is 103.1%.

With `Cc1nc(Nc2n[nH]c3c2CN(C(=O)N[C@H](CN(C)C)c2ccccc2)C3(C)C)c2sccc2n1` [ONC0000912, pf3758309], the “% viability” value is 82.32%.

As to `CC(C)=CCC/C(C)=C/CC/C(C)=C/C=C/C(C)=C/C(=O)O` [ONC0000885, peretinoin], the “% viability” value is reported as 65.8%.

For the compound `CCn1cc(-c2ccnc3[nH]c(-c4cccc(CN(C)C)c4)cc23)c(-c2ccc(NC(=O)N(C)C)cc2)n1` [ONC0004351, gsk1070916], the “% viability” value was found to be 110.4%.

On to `CCC(=O)NS(=O)(=O)c1ccc(-c2c(-c3ccccc3)noc2C)cc1` [ONC0000995, parecoxib], for which the “% viability” value is given as 79.02%.

Consider `CCOc1ccn(-c2ccc(F)cc2)c(=O)c1C(=O)Nc1ccc(Oc2ccnc(N)c2Cl)c(F)c1` [ONC0004593, bms 777607], for which the “% viability” value is 73.11%.

As to `CCN(CC)CCN(Cc1ccc(-c2ccc(C(F)(F)F)cc2)cc1)C(=O)Cn1c(SCc2ccc(F)cc2)nc(=O)c2c1CCC2` [ONC0000791, darapladib], the “% viability” value worked out at 84.74%.

With `CC(C)(C)NCC(O)COc1cccc2[nH]c(C#N)cc12` (stereo not drawn) [ONC0002675, cyanopindolol], the “% viability” value is on record as 69.14%.

Take `N#C[C@@H]1CCCN1C(=O)CNC12CC3CC(CC(O)(C3)C1)C2` [ONC0004521, vildagliptin laf237]: the “% viability” value came out at 61.97%.

Regarding `COc1ccc(/C=C\c2cc(OC)c(OC)c(OC)c2)cc1OP(=O)(O)O` [ONC0002263, fosbretabulin disodium], the “% viability” value is reported as 117.4%.

Consider `CC(C)c1cc2c(cc1S(=O)(=O)O)[C@@]1(C)CCC[C@@](C)(C(=O)O)[C@@H]1CC2` [ONC0002185, ecabet], for which the “% viability” value came to 89.11%.

On to `COc1cc(F)c(C(C)C)cc1-c1ccc(C(F)(F)F)cc1CN1C(=O)O[C@H](c2cc(C(F)(F)F)cc(C(F)(F)F)c2)[C@H]1C` [ONC0004634, anacetrapib mk0859], for which the “% viability” value came out at 81.34%.

As for `COC(=O)c1ccc2c(c1)NC(=O)/C2=C(\Nc1ccc(N(C)C(=O)CN2CCN(C)CC2)cc1)c1ccccc1` [ONC0004600, nintedanib bibf 1120], the “% viability” value was 71.59%.

For the compound `C[C@@H]1O[C@@H](O[C@@H]2[C@@H](O)[C@H](OCCc3ccc(O)c(O)c3)O[C@H](CO)[C@H]2OC(=O)/C=C/c2ccc(O)c(O)c2)[C@H](O)[C@H](O)[C@H]1O` [ONC0002049, verbascoside], the “% viability” value is given as 88.61%.

With `O=C(O[C@@H]1Cc2c(O)cc(O)cc2O[C@@H]1c1cc(O)c(O)c(O)c1)c1cc(O)c(O)c(O)c1` [ONC0000967, epigallocatechin gallate], the “% viability” value was 65.75%.

`CC(C)C[C@H](NC(=O)CNC(=O)c1cc(Cl)ccc1Cl)B(O)O` [ONC0004978, ixazomib mln2238]: the “% viability” value stood at 104.5%.

For the compound `CCOC(=O)[C@H](CCc1ccccc1)N[C@@H](C)C(=O)N1[C@H](C(=O)O)C[C@H]2CCCC[C@@H]21` [ONC0004230, trandolapril], the “% viability” value is given as 76.93%.

In the case of `COc1cc2c(cc1OC)CC(=O)N(CCCN(C)C[C@@H]1Cc3cc(OC)c(OC)cc31)CC2` [ONC0004874, ivabradine hcl procoralan], the “% viability” value turned out to be 93.19%.

On to `CC(C)C1=C2[C@H]3CC[C@@H]4[C@@]5(C)CC[C@H](OC(=O)CC(C)(C)C(=O)O)C(C)(C)[C@@H]5CC[C@@]4(C)[C@]3(C)CC[C@@]2([C@@H](O)CN(CCN(C)C)Cc2ccc(Cl)cc2)CC1=O` [ONC0001978, gsk2838232], for which the “% viability” value is given as 102.6%.

Take `C[C@@]1(c2cc(-c3cncnc3)c(F)cc2F)CCSC(N)=N1` [ONC0004881, ly2811376]: the “% viability” value is given as 113.9%.

Take `C[C@H]1Oc2cc(cnc2N)-c2c(nn(C)c2C#N)CN(C)C(=O)c2ccc(F)cc21` [ONC0002431, lorlatinib]: the “% viability” value is listed as 99.33%.

As to `CCCN1CCN(c2ccc(C(=O)NC3(C(=O)NCC#N)CCCCC3)cc2)CC1` [ONC0001015, balicatib], the “% viability” value is recorded as 83.06%.

In the case of `CCc1ccc(/C=C/C(=O)Nc2ccc(C(C)=O)cc2)o1` [ONC0002689, heclin], the “% viability” value amounted to 81.24%.

For `C[C@H]1N=C(N(C)C)N=C(N)N1` [ONC0001178, imeglimin hydrochloride], the “% viability” value was determined as 76.36%.

Regarding `Cc1cc(C)c(C2=NOC3C4CCC(C4)C23)c(C)c1` (stereo not drawn) [ONC0000128, sn2], the “% viability” value turned out to be 78.29%.

Regarding `O=[N+]([O-])c1cccc2c(Br)n[nH]c12` [ONC0003082, 3bromo7nitroindazole], the “% viability” value was 81.41%.

With `CC(=O)Nc1ccc(C(=O)NC(C)(C)C)cc1` [ONC0002880], the “% viability” value was 98.46%.

As to `O=C1NC(=O)[C@@H](c2cn3c4c(cccc24)CCC3)[C@@H]1c1c[nH]c2ccccc12` [ONC0001207, tivantinib], the “% viability” value is 98.39%.

In the case of `COc1ccccc1N1CCN(CCn2c(=O)[nH]c3c([nH]c4ccccc43)c2=O)CC1` [ONC0001608, 3mppi], the “% viability” value came to 57.64%.

With `CCc1cnn2c(NCc3ccc[n+]([O-])c3)cc(N3CCCC[C@H]3CCO)nc12` [ONC0005024, dinaciclib sch727965], the “% viability” value came out at 72.89%.

In the case of `Cn1c(=O)c2c(ncn2CCO)n(C)c1=O` [ONC0001881, 7hydroxyethyltheophylline], the “% viability” value was determined as 89.5%.

With `CC(C)(CO)Cc1cc(C(C)(C)C)c(O)c(C(C)(C)C)c1` [ONC0002518, cgp7930], the “% viability” value came to 66.25%.

With `CCN(CC)CCCCC(NC(=O)c1ccc([N+](=O)[O-])cc1)c1ccccc1` (stereo not drawn) [ONC0005365, nibentan], the “% viability” value amounted to 124%.

On to `CCCCCCCCCCCCCCSCC(=O)O` [ONC0003482, tetradecylthioacetic acid], for which the “% viability” value was determined as 58.48%.

For the compound `CC(C)C(=O)c1ccc(O)c(O)c1` [ONC0002148, u0521], the “% viability” value came to 93.35%.

With `CC(C)NCC(O)COc1cccc2[nH]c3ccccc3c12` (stereo not drawn) [ONC0003856, carazolol], the “% viability” value came to 68.8%.
